Measured values taken from the supplement of paper PMC7666118.
This is one part of the list.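 The calls were made as follows: active = dose-dependent thermal stabilisation significant by F-test of dose-response against flat model at 10% FDR; inactive = not significant.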

The chains behind the UniProt entries cited, without tags or fusion partners. Where a name states a change or a piece, a line headed by the entry shows the natural chain unless it says otherwise.
UniProt Q9NWH9: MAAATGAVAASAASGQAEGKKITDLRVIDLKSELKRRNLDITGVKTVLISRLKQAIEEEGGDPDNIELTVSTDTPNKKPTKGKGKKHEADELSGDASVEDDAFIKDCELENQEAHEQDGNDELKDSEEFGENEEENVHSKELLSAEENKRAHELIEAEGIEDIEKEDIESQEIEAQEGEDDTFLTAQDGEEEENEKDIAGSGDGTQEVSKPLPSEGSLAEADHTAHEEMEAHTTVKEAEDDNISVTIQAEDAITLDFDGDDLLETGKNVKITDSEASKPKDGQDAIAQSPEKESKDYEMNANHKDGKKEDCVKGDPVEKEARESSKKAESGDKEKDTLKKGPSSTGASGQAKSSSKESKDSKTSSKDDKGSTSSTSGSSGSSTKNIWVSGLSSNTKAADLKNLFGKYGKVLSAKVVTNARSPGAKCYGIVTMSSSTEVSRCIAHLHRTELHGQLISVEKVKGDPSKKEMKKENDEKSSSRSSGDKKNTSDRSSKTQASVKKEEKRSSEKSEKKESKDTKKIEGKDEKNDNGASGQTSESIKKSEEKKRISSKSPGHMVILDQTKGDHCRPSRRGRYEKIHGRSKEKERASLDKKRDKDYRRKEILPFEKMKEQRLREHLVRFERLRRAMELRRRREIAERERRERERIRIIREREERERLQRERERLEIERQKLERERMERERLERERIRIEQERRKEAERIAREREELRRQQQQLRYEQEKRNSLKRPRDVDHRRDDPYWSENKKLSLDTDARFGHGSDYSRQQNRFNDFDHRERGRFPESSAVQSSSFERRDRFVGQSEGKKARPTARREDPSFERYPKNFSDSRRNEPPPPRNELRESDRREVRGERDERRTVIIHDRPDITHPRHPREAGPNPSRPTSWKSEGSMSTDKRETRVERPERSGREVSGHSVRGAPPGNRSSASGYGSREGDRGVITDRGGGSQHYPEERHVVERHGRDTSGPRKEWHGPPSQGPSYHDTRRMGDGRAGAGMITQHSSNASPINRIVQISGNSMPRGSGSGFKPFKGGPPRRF

Target: SLTM (UniProt Q9NWH9)
Assay: dose-dependent thermal stabilisation call (2D-TPP, DLPTP, 10% FDR) (binary (1 = stabilised)); higher = stabilised by the compound
Conditions: system: Jurkat gel-filtered lysate; concentration range 1-500 µM
Protocol: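 2D thermal proteome profiling in gel-filtered Jurkat E6.1 lysate (2 mg/ml) treated with NaGTP (0, 1, 10, 100, 500 uM) for 10 min at room temperature, then heated 3 min at one of 12 temperatures (42-63.9 C). Soluble protein was quantified by TMT10 MS. The value is the DLPTP call of the paper: dose-dependent thermal stabilisation over all temperatures at 10% FDR (F-test of a dose-response against a flat model); one experiment, one call per tested protein.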

Compound	dose-dependent thermal stabilisation call
Nc1nc2c(ncn2[C@@H]2O[C@H](COP(=O)(O)OP(=O)(O)OP(=O)(O)O)[C@@H](O)[C@H]2O)c(=O)[nH]1	inactive: 0
